Values quoted from earlier work in patent publication US20240180921A1, “CDK8/19 INHIBITORS FOR THE TREATMENT OF CYTOKINE STORM” (University of South Carolina, priority 2021, published 2024).
For at least one compound, name, drawing or mass did not settle the structure.

What was measured:
[1] = tested on: IL-10 signaling and secretion; conditions: cited from earlier work
[2] = tested on: SARS-COV-2-induced expression of multiple cytokines; conditions: rhesus monkey, in vivo; cited from earlier work

For `CCS(=O)(=O)N1CC(CC#N)(n2cc(-c3ncnc4[nH]ccc34)cn2)C1` [baricitinib], the “effect on IL-10 signaling and secretion” value [1] is listed as “inhibits” and the “effect against SARS-COV-2-induced expression of multiple cytokines” value [2] is listed as “general effect”.
